In the assay the target is PD-1 (soluble, biotinylated, on sensors or coated on plates) (human) (UniProt Q15116). Kind of assay: Octet, SA sensors coated with biotinylated PD-1, IgG format. For orientation: BLI is a label-free optical method that tracks binding on a fibre tip over time.

By UniProt entry, the sequences of proteins in these tests, tags left out. Residues count along the entry.
UniProt Q15116, residues 25-167: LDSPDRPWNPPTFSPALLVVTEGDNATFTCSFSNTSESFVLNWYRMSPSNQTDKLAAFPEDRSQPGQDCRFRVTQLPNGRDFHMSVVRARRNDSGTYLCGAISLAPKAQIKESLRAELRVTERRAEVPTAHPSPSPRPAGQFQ

These are yes or no findings as the source states them, for the method shown. Some results given as binding are weak or reduced against the parent protein; the word gives no strength.

B1: P4-B3 IgG1 wild type monomer (antibody, V domains shown)
VH: QVQLVQSGGGLVQPGRSLRLSCAASGFTFDDYAMHWVRQAPGKGLEWVSGISWNSGSIGYADSVKGRFTVSRDNAKNSLYLQMNSLRAEDTAVYYCASDYGDKYYYYGMDVWGKGTTVTVSS
VL: QPGLTQPPSASGTPGQRVTISCSGSSSNIGSNTVNWYQQFPGKAPKLLIFNDNQRPSGVPDRFSASKSGTSASLAISGLQSEDEADYYCAAWDGGLNGRGVFGGGTKLTVLG
In the case of B1, the binding result is recorded as “binds”.

The record behind these values is patent US20220249640A1.
